These are yes or no findings as the source states them, for the method shown. Some entries that bind do so weakly or less than the wild type.
Tests used:
Experiment in all cases: phage selection; ELISA EC50 on immobilized cognate HECT domain (Table 4, not given)
[1] = biological target: T1, HECTD1 HECT domain (human) (UniProt Q9ULT8)
T1 sequence (looked up): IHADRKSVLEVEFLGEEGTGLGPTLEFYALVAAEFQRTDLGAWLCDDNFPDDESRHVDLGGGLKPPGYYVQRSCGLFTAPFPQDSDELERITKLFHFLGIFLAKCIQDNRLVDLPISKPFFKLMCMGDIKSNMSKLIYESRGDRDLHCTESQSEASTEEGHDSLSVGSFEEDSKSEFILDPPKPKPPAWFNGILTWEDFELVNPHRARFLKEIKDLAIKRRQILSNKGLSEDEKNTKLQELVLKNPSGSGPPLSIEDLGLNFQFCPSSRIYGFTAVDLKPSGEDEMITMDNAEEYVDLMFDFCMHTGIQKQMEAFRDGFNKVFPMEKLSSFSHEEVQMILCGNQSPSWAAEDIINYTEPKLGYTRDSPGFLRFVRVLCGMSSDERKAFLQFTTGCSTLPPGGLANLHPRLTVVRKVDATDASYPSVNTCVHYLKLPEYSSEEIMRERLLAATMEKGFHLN

Sequences of proteins named here, by UniProt entry; tags and fusion partners are left off. Residues count along the entry.
UniProt Q96J02, residues 524-903: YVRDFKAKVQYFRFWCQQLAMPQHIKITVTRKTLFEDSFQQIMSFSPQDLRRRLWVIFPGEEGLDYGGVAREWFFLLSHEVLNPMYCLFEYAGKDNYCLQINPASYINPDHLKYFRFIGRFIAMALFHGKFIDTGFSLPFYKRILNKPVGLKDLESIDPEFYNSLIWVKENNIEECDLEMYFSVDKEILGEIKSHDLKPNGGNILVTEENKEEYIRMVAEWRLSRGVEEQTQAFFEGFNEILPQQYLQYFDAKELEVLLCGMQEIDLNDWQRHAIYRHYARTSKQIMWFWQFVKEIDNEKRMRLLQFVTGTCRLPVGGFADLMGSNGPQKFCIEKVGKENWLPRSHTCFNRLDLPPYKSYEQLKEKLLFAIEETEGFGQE

[2] = biological target: T2, EDD1 HECT domain (human) (UniProt O95071)
T2 sequence (looked up): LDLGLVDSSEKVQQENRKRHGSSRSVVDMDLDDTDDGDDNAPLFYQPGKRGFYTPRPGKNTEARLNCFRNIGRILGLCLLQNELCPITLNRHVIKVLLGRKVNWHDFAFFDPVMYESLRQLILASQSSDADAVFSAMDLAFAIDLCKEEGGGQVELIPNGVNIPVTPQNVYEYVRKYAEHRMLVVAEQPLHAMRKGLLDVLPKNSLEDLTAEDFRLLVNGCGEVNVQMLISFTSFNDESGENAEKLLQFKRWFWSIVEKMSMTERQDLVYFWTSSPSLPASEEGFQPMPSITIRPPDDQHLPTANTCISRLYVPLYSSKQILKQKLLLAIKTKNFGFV

[3] = biological target: ITCH HECT domain (human) (UniProt Q96J02)

B1: Ubv.D1.4 (designed binder)
chain: MAILVKTVTGNSITLEVEPSDTIENVKAKIQDKEGIPPDQQGLLFARTRLEDGRTLSDYNIQKASTLHLVRTLRGTDT
- binding [1]: binds

B2: Ubv.ED.3 (designed binder)
chain: MSIFVITFTRKPITLEVEPSDTIENVKAKIQDKEGIPPDQQILIFAGKKLEDGRTLSDYNIQKESSLYLFLRLRGAKV
- binding [2]: binds

B3: Ubv.ED.7 (designed binder)
chain: MQISVVTLTRPTITLEVEPSDTIENVKAKIQDKEGIPPDQQRLIFAGRDLEDGRTLSDYNIQKQSSLHLFFRLRGSVS
- binding [2]: binds

B4: Ubv.IT.4 (designed binder)
chain: MQIFVKTLTGLSITTLEVEPSDTIENVKAKIQDKEGIPPDQQILIFGGKRLEDGRTLSDYNIQKKSSLYLLMRLRGVSR
- binding [3]: binds

B5: Ubv.D1.2 (designed binder)
chain: MQILVRTLTGKTIRLEVEPSDTIENVKAKIQDKEGIPPDQQRLIFAGMRLEDGRTLSDYNIQGFSPLGLVLRLLRVEL
- binding [1]: binds

B6: Ubv.D1.3 (designed binder)
chain: MQIFVKTVSGKTINLEVEPSDTIENVKAKIQDKEGIPPDQQGLIFARKRLEDGRTLSDYNIQDESNLHLVLTLVGRNL
- binding [1]: binds

Source: patent publication US20200277346A1
